# Patent US9062039B2, “Therapeutic compounds” (CHANGZHOU LE SUN PHARMACEUTICALS LIMITED, priority 2012, dated 2015)
# For at least one compound, name, drawing or mass did not settle the structure.
# Assays:
# [1] = test system: MCL1 transcription in CLL cells; assay: Real-time reverse transcription-PCR of MCL1; format: cell-based, human; conditions: single agent, 4 h, with and without CD40L co-culture
# Method: CDKI-73, 100:1) for 4 h using the method described by Walsby et al. (Oncotarget 3, 525-34 (2012)).
# [2] = test system: MCL1, BCL2, XIAP, CCND1 and CCND2 expression in CLL cells; assay: Gene expression profiling (Affymetrix microarray); format: cell-based, human; conditions: single agent, 10 μM fludarabine, 4 h
# Text: The detailed protocol for sample preparation and microarray processing is available from Affymetrix (http://www.affymetrix.com). […] After second strand synthesis, the resulting cDNA was subjected to an in vitro transcription reaction using a Bioarray kit (Enzo Diagnostics, New York, N.Y., USA) to generate biotinylated cRNA. This was subsequently fragmented and hybridized to the Affymetrix U133 2.0 Gene Chips. After hybridization, each microarray was washed, stained and scanned with an argon-ion confocal laser, with excitation at 488 nm and detection at 570 nm. The significance of differences between experimental conditions was determined using the Student's t test for paired and unpaired observations. To assess the interaction between agents, the median effect method was employed using CalcuSyn software (CalcuSyn; Biosoft International, Ferguson, Mo.). The combination index was calculated for the two-drug combination using an experimentally determined fixed concentration ratio. […] Affymetrix gene expression data were processed using Partek Genomics Suite (Partek Inc. Saint Louis, USA).
smiles,measurement,setting,value
"Nc1nc(F)nc2c1ncn2[C@@H]1O[C@H](CO)[C@@H](O)[C@@H]1O [fludarabine, reference compound]",MCL1 transcription (QRT-PCR),[1],induced
same,"transcription of MCL1, BCL2 and XIAP",[2],induced
